These are yes or no findings as the source states them, for the method shown. Some entries that bind do so weakly or less than the wild type.
Assays:
[1] = target: T1, ectodomain of human TMPRSS2-myc-myc-His (human, UniProt O15393 106-492); assay: SPR Biacore T200, 25 C and 37 C; species of TMPRSS2 not given
T1 construct: extracellular domain; also called hTMPRSS2-MMH; human TMPRSS2-MMH

The chains behind the UniProt entries cited, without tags or fusion partners. Residues count along the entry.
UniProt O15393, residues 106-492: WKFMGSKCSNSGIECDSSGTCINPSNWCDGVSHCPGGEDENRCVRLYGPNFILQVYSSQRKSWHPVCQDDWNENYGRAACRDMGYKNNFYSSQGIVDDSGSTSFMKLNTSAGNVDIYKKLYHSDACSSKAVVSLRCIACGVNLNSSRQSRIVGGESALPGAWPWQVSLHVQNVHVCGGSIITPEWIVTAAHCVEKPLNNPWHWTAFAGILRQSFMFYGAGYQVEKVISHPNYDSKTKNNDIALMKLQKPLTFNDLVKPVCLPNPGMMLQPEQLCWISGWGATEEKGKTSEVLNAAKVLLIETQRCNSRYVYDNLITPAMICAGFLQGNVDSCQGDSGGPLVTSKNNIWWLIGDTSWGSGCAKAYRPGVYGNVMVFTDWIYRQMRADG

[2] = target: T1, ectodomain of human TMPRSS2-myc-myc-His; assay: SPR Biacore T200, 25 C and 37 C

Row | Binder | binding [1] | binding [2]
1 | mAb8021 (antibody, human IgG4 S228P, kappa, V domains shown, also called anti-TMPRSS2 mAb) VH: QVQLVQSGAEVKKPGASVRVSCKASGYTFTNYGITWVRQAPGQGLEWMGGISVYNGNTEYAEKFQGRVSMTTDTSTTTAYLELRSLKSDDTAVYFCARGQLDYFDPWGQGTLVTVSS VL: EIVMTQSPATLSVSPGERATLSCRASQSVRSNLAWYQQKPGQAPSLLIYGASTRATGIPARFSGSGSGTEFTLTISSLQSEDFAVYFCLQYNNWWTFGQGTKVEIKR | binds | binds
2 | mAb8029 (antibody, human IgG4 S228P, kappa, V domains shown, also called anti-TMPRSS2 mAb) VH: QLQLQESGPGLVKPSETLSLTCTVSGGSINSNSYYWGWIRQPPGKGLEWIGSIYYDRNTYYTPSLKSRVTISVDTSKNQFSLKLTSVTAADTAVYYCAREQVPGYYGMDVWGQGTTVTVSS VL: DIQLTQSPSFLSASVGDRVTITCWASQGISRYLAWYQQKPGKTPKLLIYAASTLQSGVPSRFSGTGSGTDFTLTISNLQPEDFATYYCQQFDSYPWTFGQGTKVEIKR | binds | 
